Measurements from publication PMC9110474.
No constants are given. Whether binding was seen depends on the method and setting. In cells and extracts the contact can be indirect. A result given as binding can be weak or reduced; the word gives no strength.

Sequences of proteins named here, by UniProt entry; tags and fusion partners are left off. A change or cut given only in a name is not applied to a line headed by its entry.
UniProt P07213: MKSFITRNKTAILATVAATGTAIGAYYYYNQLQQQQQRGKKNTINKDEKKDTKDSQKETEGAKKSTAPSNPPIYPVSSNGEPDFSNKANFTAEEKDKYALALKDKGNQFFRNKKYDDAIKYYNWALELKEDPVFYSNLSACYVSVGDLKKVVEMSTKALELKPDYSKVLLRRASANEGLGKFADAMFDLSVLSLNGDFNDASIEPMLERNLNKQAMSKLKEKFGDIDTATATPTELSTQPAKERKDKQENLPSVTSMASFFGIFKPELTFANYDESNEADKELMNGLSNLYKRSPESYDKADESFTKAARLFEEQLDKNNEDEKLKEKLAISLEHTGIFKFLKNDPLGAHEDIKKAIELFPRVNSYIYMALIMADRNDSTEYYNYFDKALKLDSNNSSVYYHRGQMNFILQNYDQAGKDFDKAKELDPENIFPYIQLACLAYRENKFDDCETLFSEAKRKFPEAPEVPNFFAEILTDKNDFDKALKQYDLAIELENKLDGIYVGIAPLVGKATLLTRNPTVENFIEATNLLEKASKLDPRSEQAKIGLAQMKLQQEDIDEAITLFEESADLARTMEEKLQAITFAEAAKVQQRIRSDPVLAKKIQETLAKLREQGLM
UniProt Q9BXM7: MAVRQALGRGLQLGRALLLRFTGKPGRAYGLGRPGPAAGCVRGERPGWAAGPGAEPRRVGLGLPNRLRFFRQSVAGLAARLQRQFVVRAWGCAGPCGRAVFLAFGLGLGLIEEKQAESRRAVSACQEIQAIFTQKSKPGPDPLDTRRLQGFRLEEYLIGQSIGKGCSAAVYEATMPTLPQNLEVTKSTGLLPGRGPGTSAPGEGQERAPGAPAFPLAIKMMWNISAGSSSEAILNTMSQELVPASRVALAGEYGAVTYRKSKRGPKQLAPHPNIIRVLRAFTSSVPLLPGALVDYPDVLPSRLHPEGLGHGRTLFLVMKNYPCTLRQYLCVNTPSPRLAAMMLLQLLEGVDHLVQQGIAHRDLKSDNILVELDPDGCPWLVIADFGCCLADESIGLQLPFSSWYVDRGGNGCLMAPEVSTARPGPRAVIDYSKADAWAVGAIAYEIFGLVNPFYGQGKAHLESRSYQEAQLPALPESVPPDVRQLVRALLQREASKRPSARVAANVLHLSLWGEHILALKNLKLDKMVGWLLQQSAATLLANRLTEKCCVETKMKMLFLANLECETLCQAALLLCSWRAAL

biological target: GST-Tom70 (cytosolic domain) (yeast) (UniProt P07213); assay: pull-down; GST-fusion proteins on Glutathione Sepharose 4B beads, blocked with reticulocyte lysate, incubated 1 h at 4 °C with radiolabeled proteins, 0.2 mM ATP every 30 min; GST basic buffer (20 mM HEPES, pH 7.25, 100 mM NaCl, 1.5 mM MgCl2); SDS-PAGE and autoradiography; only the target purified

binding, binds:
PINK1 (human, native, radiolabeled) (from UniProt Q9BXM7 1-581)
PINK1 fragment 1–120 (radiolabeled) (from UniProt Q9BXM7 1-120) (domain or fragment)
PINK1 fragment 35–120 (radiolabeled) (from UniProt Q9BXM7 35-120) (domain or fragment)
